The other results are listed elsewhere or left out. Residues, ends and D or L forms follow the SMILES beside them. *: point of attachment. Cbz = O=C(OCc1ccccc1)*
Tests used:
Assay in all cases: log2 fold change, soluble protein after heating vs DMSO (PISA); higher = thermal stabilisation; K562 cells, 10 uM, 30 min; active = over 0.2 and 3.5 SD of the protein, either way, in both replicates (recomputed)
erlotinib = compound: C#Cc1cccc(Nc2ncnc3cc(OCCOC)c(OCCOC)cc23)c1 [erlotinib]
Method in brief: (§1)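 Aliquots of K562 cells (2×10^6 cells/mL) treated with 10 μM compound for 30 min were heated for 3 min over 48°C-58°C. After pooling and extraction in PBS with 0.5% NP-40 at 4°C, soluble protein from a 21,000xg, 90 min spin was quantified by TMTpro 16plex LC-MS/MS with channel sums equalised. Thermal stability is expressed against control samples, from duplicates, as a log2 fold change.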

Sequences of proteins named here, by UniProt entry; tags and fusion partners are left off. A change or cut given only in a name is not applied to a line headed by its entry.
UniProt Q9H3K6: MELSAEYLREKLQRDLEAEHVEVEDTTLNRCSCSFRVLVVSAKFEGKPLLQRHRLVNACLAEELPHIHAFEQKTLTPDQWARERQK
UniProt Q96G01: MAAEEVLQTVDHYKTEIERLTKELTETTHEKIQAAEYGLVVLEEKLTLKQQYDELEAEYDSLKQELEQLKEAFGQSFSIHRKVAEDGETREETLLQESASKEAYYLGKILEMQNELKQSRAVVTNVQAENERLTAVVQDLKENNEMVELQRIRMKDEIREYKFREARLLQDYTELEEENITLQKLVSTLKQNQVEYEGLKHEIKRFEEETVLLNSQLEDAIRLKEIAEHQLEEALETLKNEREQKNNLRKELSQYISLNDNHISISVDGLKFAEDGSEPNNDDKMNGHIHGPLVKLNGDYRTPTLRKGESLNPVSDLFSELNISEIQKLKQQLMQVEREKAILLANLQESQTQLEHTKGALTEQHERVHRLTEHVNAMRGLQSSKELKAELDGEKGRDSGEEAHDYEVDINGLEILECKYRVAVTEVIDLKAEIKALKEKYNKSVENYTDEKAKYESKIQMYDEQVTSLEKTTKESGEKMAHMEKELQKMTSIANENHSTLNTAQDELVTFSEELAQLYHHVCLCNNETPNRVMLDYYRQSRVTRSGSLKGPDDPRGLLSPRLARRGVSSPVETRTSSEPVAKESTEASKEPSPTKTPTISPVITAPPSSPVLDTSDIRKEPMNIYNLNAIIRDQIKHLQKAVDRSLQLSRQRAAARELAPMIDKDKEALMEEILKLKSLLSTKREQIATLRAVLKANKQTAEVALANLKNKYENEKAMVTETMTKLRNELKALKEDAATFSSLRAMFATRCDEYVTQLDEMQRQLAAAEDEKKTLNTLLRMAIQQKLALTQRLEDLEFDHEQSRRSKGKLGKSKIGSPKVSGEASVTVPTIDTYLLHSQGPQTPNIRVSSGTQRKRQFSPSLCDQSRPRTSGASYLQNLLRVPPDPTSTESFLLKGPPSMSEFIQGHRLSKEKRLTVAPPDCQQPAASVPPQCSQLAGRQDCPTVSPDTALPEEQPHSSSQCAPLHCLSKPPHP
UniProt P54687: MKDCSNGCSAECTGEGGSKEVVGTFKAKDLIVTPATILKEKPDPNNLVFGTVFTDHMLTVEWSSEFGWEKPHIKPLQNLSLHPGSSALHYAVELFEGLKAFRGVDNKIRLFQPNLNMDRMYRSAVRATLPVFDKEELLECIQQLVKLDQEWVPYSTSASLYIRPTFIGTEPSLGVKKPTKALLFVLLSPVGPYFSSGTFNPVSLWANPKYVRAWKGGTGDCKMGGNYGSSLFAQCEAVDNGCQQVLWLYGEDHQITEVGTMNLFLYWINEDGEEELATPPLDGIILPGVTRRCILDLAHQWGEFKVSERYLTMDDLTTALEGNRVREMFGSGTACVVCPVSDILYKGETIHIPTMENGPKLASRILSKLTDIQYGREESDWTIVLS
UniProt Q12981: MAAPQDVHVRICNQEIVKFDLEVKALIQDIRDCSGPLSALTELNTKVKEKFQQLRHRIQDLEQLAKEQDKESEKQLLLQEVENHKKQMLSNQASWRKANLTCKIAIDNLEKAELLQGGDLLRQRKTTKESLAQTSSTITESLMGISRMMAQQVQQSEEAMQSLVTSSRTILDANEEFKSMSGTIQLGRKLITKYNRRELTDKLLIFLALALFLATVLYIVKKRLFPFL
UniProt P12694: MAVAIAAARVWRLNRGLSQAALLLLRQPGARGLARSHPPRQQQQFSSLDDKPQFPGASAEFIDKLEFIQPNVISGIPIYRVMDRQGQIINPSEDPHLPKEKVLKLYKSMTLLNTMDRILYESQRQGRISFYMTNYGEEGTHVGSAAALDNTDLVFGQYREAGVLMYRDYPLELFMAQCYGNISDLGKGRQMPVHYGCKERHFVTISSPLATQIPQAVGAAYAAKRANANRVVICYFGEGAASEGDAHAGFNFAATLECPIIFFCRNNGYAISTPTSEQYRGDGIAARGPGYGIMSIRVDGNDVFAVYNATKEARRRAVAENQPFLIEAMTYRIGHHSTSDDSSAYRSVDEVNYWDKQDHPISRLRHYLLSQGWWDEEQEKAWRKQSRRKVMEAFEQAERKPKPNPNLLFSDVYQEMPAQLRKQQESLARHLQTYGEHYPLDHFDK
UniProt Q8WY22: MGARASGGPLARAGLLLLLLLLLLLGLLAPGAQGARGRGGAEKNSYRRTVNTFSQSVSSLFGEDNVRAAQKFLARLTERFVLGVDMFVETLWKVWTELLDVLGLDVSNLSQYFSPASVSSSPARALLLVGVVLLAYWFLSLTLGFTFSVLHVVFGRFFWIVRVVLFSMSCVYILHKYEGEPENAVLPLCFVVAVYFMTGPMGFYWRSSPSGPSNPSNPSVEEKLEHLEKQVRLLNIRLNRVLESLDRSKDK
UniProt Q9NWV8, whole entry, looked up: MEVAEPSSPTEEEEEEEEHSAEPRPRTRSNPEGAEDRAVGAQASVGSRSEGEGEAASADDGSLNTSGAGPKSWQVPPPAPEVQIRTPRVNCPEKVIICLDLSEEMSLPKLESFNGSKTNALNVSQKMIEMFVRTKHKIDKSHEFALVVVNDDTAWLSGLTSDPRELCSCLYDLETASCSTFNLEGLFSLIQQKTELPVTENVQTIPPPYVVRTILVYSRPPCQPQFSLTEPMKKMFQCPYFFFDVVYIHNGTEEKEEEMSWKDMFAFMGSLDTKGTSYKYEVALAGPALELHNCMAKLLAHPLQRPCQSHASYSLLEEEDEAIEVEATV
UniProt Q9BXK5, whole entry, looked up: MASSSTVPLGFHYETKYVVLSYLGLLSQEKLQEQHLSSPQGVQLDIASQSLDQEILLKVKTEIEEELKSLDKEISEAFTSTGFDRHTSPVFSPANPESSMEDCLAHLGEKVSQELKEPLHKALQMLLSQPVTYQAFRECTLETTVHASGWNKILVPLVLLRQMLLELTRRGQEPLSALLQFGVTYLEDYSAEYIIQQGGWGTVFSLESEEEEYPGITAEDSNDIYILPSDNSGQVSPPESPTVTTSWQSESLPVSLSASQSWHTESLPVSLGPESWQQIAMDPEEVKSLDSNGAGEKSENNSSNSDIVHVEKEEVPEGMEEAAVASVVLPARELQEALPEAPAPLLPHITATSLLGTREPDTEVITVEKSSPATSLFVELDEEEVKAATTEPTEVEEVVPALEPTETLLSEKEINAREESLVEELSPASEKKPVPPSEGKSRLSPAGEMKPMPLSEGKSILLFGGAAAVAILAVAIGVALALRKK
UniProt Q14692: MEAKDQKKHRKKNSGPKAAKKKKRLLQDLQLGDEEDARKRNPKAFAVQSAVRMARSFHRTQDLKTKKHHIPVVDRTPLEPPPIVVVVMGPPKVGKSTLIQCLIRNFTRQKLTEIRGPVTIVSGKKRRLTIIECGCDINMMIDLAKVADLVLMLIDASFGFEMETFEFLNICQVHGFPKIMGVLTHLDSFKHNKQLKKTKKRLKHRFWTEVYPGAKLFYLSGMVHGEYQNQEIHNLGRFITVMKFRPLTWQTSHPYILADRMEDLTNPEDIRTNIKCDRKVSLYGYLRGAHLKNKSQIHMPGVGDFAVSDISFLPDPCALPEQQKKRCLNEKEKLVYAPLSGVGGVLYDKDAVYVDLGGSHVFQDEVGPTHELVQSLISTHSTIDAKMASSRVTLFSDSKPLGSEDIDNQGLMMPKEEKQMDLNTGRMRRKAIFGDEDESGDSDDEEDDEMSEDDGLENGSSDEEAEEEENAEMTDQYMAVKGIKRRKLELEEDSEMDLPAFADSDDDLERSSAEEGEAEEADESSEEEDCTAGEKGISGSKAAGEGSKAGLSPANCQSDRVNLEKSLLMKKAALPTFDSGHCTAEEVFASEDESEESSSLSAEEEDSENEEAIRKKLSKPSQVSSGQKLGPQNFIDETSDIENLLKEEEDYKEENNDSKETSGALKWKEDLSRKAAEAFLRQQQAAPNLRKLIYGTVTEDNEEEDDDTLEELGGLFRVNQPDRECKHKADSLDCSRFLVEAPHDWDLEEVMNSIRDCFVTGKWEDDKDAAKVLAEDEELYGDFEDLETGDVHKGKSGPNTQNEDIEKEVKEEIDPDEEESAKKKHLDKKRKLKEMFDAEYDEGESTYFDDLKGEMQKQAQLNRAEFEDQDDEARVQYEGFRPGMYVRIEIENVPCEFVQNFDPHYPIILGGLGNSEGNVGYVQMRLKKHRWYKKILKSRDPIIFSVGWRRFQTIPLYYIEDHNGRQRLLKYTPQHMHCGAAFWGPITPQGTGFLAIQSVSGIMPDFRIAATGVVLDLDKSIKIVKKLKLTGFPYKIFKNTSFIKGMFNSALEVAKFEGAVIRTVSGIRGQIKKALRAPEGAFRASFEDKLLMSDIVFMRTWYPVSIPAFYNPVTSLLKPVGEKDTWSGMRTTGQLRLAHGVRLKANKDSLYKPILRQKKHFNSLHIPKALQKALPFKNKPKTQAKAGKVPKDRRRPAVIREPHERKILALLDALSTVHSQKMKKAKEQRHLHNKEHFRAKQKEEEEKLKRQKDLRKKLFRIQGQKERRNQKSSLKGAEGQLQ
UniProt Q99933: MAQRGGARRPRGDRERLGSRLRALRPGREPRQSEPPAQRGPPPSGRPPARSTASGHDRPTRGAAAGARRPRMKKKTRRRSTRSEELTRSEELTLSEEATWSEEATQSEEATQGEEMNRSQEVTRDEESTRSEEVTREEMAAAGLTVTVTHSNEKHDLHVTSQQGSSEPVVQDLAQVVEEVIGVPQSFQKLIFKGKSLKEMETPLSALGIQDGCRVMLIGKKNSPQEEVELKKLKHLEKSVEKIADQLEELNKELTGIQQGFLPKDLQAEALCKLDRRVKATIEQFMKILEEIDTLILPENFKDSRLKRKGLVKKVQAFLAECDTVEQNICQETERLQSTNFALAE
UniProt Q07817, whole entry, looked up: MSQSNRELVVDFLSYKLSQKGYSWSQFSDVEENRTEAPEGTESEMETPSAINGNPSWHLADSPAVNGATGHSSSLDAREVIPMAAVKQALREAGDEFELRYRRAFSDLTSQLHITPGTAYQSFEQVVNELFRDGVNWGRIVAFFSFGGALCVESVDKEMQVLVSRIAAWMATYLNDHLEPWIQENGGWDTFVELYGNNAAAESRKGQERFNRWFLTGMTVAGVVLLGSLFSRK
UniProt Q9UL15: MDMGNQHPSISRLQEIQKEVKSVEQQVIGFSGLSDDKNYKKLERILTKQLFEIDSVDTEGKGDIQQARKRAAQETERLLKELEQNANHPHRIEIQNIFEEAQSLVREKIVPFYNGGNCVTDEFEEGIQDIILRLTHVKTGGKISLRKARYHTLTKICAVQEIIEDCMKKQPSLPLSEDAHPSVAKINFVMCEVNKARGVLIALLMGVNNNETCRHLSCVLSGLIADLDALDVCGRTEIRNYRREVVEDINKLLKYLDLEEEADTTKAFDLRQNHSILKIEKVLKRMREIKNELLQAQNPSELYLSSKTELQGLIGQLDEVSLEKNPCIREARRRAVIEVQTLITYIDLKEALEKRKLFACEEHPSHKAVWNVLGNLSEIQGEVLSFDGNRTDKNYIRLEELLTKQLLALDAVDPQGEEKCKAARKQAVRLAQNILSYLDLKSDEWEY
UniProt Q53S33: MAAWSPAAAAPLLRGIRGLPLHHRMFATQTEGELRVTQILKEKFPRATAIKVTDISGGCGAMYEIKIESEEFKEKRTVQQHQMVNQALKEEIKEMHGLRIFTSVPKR
UniProt O95999: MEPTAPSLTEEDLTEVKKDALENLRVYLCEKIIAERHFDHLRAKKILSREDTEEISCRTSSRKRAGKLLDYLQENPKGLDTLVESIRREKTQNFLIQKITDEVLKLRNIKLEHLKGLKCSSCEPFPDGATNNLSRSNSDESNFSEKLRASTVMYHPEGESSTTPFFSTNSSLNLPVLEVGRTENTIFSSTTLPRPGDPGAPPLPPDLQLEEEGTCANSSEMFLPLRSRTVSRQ
UniProt P78537: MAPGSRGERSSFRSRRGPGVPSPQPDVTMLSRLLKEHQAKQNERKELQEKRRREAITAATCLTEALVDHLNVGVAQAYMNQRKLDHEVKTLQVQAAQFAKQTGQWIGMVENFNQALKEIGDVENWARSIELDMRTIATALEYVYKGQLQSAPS

[1] = compound: C/C(=N\NC(=O)C1=CC(=CC=C1)S(=O)(=O)N2CCOCC2)/C3=C(C=CC(=C3)Cl)O
Method in brief: as §1

[2] = compound: C1=CC(=C(C=C1Cl)C2=NC3=NC=CN=C3C(=N2)NC4=CC=NC=C4)F
Method in brief: as §1

[3] = compound: C1=CC(=CC=C1C2=NC3=C(N2)C=C(C=C3)C(=O)N)OC4=CC=C(C=C4)Cl
Method in brief: as §1

[4] = compound: C1=CC2=C(C=CC(=C2)/C=C\3/C(=O)NC(=NCC4=CC=CS4)S3)N=C1
Method in brief: as §1

[5] = compound: C1=CC2=NC=CN=C2C=C1/C=C/3\C(=O)NC(=O)S3
Method in brief: as §1

[6] = compound: C1=CC=C(C=C1)C2=NC(=C(N2)C3=CC=NC=C3)C4=CC(=C(C=C4)Cl)O
Method in brief: as §1

[7] = compound: C1=CC=C2C(=C1)C3=NNC4=CC=CC(=C43)C2=O
Method in brief: as §1

[8] = compound: C1CCN(C1)C(=O)NC2=CC=CC(=C2)NC3=NC=C(C(=N3)NCCC4=CN=CN4)Br
Method in brief: as §1

[9] = compound: C1CN(CCC1(CC2=CC=C(C=C2)Cl)N)C3=NC=NC4=C3C=CN4
Method in brief: as §1

IRAK-1-4 Inhibitor I = compound: C1COCCN1CCN2C3=CC=CC=C3N=C2NC(=O)C4=CC(=CC=C4)[N+](=O)[O-] [IRAK-1-4 Inhibitor I]
Method in brief: as §1

ibrutinib = compound: C=CC(=O)N1CCC[C@@H](n2nc(-c3ccc(Oc4ccccc4)cc3)c3c(N)ncnc32)C1 [ibrutinib]
Method in brief: as §1

[10] = compound: CC(=O)c1cnc2ccc(-c3cc(Cl)c(O)c(Cl)c3)nc2c1N[C@H]1CC[C@H](CN(C)C)CC1
Method in brief: as §1

ralimetinib = compound: CC(C)(C)Cn1c(N)nc2ccc(-c3[nH]c(C(C)(C)C)nc3-c3ccc(F)cc3)nc21 [ralimetinib]
Method in brief: as §1

[11] = compound: CC(C)(O)CC(=O)NCCn1ccc2ncnc(Nc3ccc(Oc4cccc(C(F)(F)F)c4)c(Cl)c3)c21
Method in brief: as §1

[12] = compound: CC(C)C1=C2N=C(C=C(N2N=C1)NCC3=CC=CC=C3)NCCCCCCN
Method in brief: as §1

[13] = compound: CC(C)C[C@@H](C=O)NC(=O)[C@H](CC(C)C)NC(=O)[C@H](CC(C)C)NC(=O)OCc1ccccc1
Method in brief: as §1

pinometostat = compound: CC(C)N(C[C@H]1O[C@@H](n2cnc3c(N)ncnc32)[C@H](O)[C@@H]1O)[C@H]1C[C@@H](CCc2nc3cc(C(C)(C)C)ccc3[nH]2)C1 [pinometostat]
Method in brief: as §1

[14] = compound: CC1=C(C(CC(=O)N1)C2=CC=C(C=C2)C(F)(F)F)C(=O)NC3=C(C=C4C(=C3)C=NN4)F
Method in brief: as §1

[15] = compound: CC1=C(C2=C(C=C1)C(=O)C3=CC=CC=C3N2CCCN)C
Method in brief: as §1

Measured: log2 fold change

BOLA2 (UniProt Q9H3K6)
inactive: erlotinib -0.015 | [1] 0.127 | [2] 0.132 | [3] -0.025 | [4] 0.041 | [5] 0.027 | [6] 0 | [7] 0.014 | [8] -0.02 | [9] -0.008 | IRAK-1-4 Inhibitor I 0.021 | ibrutinib -0.017 | [10] -0.014 | ralimetinib -0.02 | [11] -0.025 | [12] -0.052 | [13] -0.007 | pinometostat -0.035 | [14] -0.031 | [15] 0.085

BICD1 (UniProt Q96G01)
inactive: erlotinib 0.006 | [1] 0.064 | [2] -0.036 | [3] -0.022 | [4] 0.144 | [5] -0.008 | [6] 0.111 | [7] 0.04 | [8] -0.037 | [9] -0.046 | IRAK-1-4 Inhibitor I -0.085 | ibrutinib 0.054 | [10] -0.024 | ralimetinib 0.063 | [11] 0.086 | [12] -0.17 | [13] 0.175 | pinometostat 0.127 | [14] 0.049 | [15] 0.006

BCAT1 (UniProt P54687)
inactive: erlotinib 0.019 | [1] -0.013 | [2] 0.068 | [3] -0.001 | [4] 0.009 | [5] -0.007 | [6] -0.012 | [7] -0.012 | [8] -0.021 | [9] 0.022 | IRAK-1-4 Inhibitor I 0.046 | ibrutinib -0.005 | [10] -0.009 | ralimetinib -0.063 | [11] 0.009 | [12] 0.034 | [13] -0.02 | pinometostat -0.013 | [14] -0.015 | [15] 0.007

BNIP1 (UniProt Q12981)
inactive: erlotinib -0.003 | [1] 0.009 | [2] 0.025 | [3] 0.015 | [4] 0.033 | [5] 0.012 | [6] 0.009 | [7] -0.033 | [8] -0.016 | [9] -0.006 | IRAK-1-4 Inhibitor I 0.032 | ibrutinib -0.021 | [10] -0.023 | ralimetinib -0.026 | [11] 0.002 | [12] -0.11 | [13] -0.005 | pinometostat 0.011 | [14] 0.019 | [15] 0.088

Quoted from the entries so far (2 entries):
BICD1 (UniProt Q96G01)
inactive: erlotinib 0.006 | [1] 0.064 | [2] -0.036 | [3] -0.022 | [4] 0.144 | [5] -0.008 | [6] 0.111 | [7] 0.04 | [8] -0.037 | [9] -0.046 | IRAK-1-4 Inhibitor I -0.085 | ibrutinib 0.054 | [10] -0.024 | ralimetinib 0.063 | [11] 0.086 | [12] -0.17 | [13] 0.175 | pinometostat 0.127 | [14] 0.049 | [15] 0.006

BCAT1 (UniProt P54687)
inactive: erlotinib 0.019 | [1] -0.013 | [2] 0.068 | [3] -0.001 | [4] 0.009 | [5] -0.007 | [6] -0.012 | [7] -0.012 | [8] -0.021 | [9] 0.022 | IRAK-1-4 Inhibitor I 0.046 | ibrutinib -0.005 | [10] -0.009 | ralimetinib -0.063 | [11] 0.009 | [12] 0.034 | [13] -0.02 | pinometostat -0.013 | [14] -0.015 | [15] 0.007

Next part:

BCKDHA (UniProt P12694)
inactive: erlotinib 0.003 | [1] -0.022 | [2] -0.045 | [3] 0.043 | [4] 0.078 | [5] -0.021 | [6] 0.008 | [7] 0.047 | [8] 0.024 | [9] 0.007 | IRAK-1-4 Inhibitor I 0.07 | ibrutinib 0.005 | [10] 0.041 | ralimetinib -0.008 | [11] -0.017 | [12] 0.028 | [13] 0.036 | pinometostat 0.032 | [14] -0.001 | [15] 0.081

BRI3BP (UniProt Q8WY22)
inactive: erlotinib 0.069 | [1] 0.125 | [2] -0.103 | [3] 0.06 | [4] 0.01 | [5] 0.02 | [6] 0.039 | [7] -0.082 | [8] -0.162 | [9] 0.054 | IRAK-1-4 Inhibitor I -0.054 | ibrutinib 0.051 | [10] -0.027 | ralimetinib -0.102 | [11] 0.105 | [12] -0.019 | [13] -0.008 | pinometostat 0.082 | [14] 0.013 | [15] 0.055

BABAM1 (UniProt Q9NWV8)
inactive: erlotinib -0.019 | [1] -0.042 | [2] 0.003 | [3] 0.058 | [4] -0.028 | [5] -0.006 | [6] -0.004 | [7] -0.029 | [8] 0.029 | [9] 0.063 | IRAK-1-4 Inhibitor I -0.013 | ibrutinib -0.015 | [10] 0.08 | ralimetinib -0.001 | [11] 0.008 | [12] -0.014 | [13] 0.072 | pinometostat -0.025 | [14] 0.025 | [15] -0.041

BCL2L13 (UniProt Q9BXK5)
inactive: erlotinib 0.013 | [1] 0.013 | [2] 0.059 | [3] 0.012 | [4] 0.005 | [5] 0.031 | [6] 0.004 | [7] 0 | [8] 0.029 | [9] -0.002 | IRAK-1-4 Inhibitor I 0.001 | ibrutinib -0.009 | [10] -0.013 | ralimetinib -0.057 | [11] 0 | [12] -0.044 | [13] -0.003 | pinometostat -0.002 | [14] -0.001 | [15] -0.068

BMS1 (UniProt Q14692)
inactive: erlotinib -0.067 | [1] -0.048 | [2] -0.211 | [3] 0.021 | [4] -0.004 | [5] -0.022 | [6] -0.035 | [7] 0.029 | [8] 0.008 | [9] -0.2 | IRAK-1-4 Inhibitor I -0.11 | ibrutinib 0.02 | [10] 0.094 | ralimetinib 0.153 | [11] -0.001 | [12] 0.011 | [13] 0.105 | pinometostat 0.335 | [14] 0 | [15] -0.443

BAG1 (UniProt Q99933)
inactive: erlotinib -0.015 | [1] -0.001 | [2] 0.005 | [3] 0.009 | [4] 0.054 | [5] 0.032 | [6] -0.022 | [7] 0.074 | [8] -0.024 | [9] 0.038 | IRAK-1-4 Inhibitor I -0.009 | ibrutinib -0.022 | [10] -0.014 | ralimetinib -0.04 | [11] -0.04 | [12] 0.024 | [13] -0.006 | pinometostat -0.041 | [14] 0.027 | [15] -0.008

BCL2L1 (UniProt Q07817)
inactive: erlotinib 0.013 | [1] 0.002 | [2] -0.017 | [3] 0.022 | [4] 0.012 | [5] 0.041 | [6] 0.14 | [7] 0.054 | [8] -0.034 | [9] 0.046 | IRAK-1-4 Inhibitor I 0.025 | ibrutinib -0.006 | [10] -0.061 | ralimetinib 0.101 | [11] 0.023 | [12] -0.046 | [13] -0.06 | pinometostat -0.064 | [14] -0.005 | [15] -0.004

BAG5 isoform 2 (UniProt Q9UL15)
inactive: erlotinib -0.009 | [1] 0.105 | [2] 0.031 | [3] -0.115 | [4] 0.079 | [5] 0.051 | [6] 0.098 | [7] 0.015 | [8] 0.004 | [9] -0.056 | IRAK-1-4 Inhibitor I 0.037 | ibrutinib 0.01 | [10] -0.038 | ralimetinib 0.003 | [11] 0.005 | [12] 0.019 | [13] 0.004 | pinometostat 0.032 | [14] -0.084 | [15] 0.063

BOLA3 (UniProt Q53S33)
inactive: erlotinib -0.001 | [1] -0.028 | [2] 0.041 | [3] 0.017 | [4] 0.002 | [5] 0.015 | [6] -0.022 | [7] 0.025 | [8] 0.028 | [9] 0.02 | IRAK-1-4 Inhibitor I 0.034 | ibrutinib -0.001 | [10] 0.01 | ralimetinib -0.085 | [11] -0.027 | [12] 0.014 | [13] -0.013 | pinometostat -0.036 | [14] 0.022 | [15] -0.009

BCL10 (UniProt O95999)
inactive: erlotinib 0.1 | [1] 0.016 | [2] -0.002 | [3] -0.002 | [4] -0.001 | [5] 0.041 | [6] 0.001 | [7] -0.014 | [8] -0.027 | [9] -0.139 | IRAK-1-4 Inhibitor I -0.015 | ibrutinib 0 | [10] -0.026 | ralimetinib -0.028 | [11] -0.035 | [12] -0.08 | [13] 0.071 | pinometostat 0.118 | [14] 0.082 | [15] -0.013

BLOC1S1 (UniProt P78537)
inactive: erlotinib 0.007 | [1] 0.006 | [2] 0.094 | [3] 0.027 | [4] 0.074 | [5] 0.009 | [6] 0.022 | [7] -0.06 | [8] 0.04 | [9] -0.011 | IRAK-1-4 Inhibitor I 0 | ibrutinib -0.001 | [10] -0.03 | ralimetinib -0.058 | [11] -0.188 | [12] -0.032 | [13] -0.056 | pinometostat -0.07 | [14] -0.078 | [15] 0.104

BCKDK (UniProt O14874)
inactive: erlotinib 0.074 | [1] 0.019 | [2] -0.018 | [3] 0.07 | [4] -0.01 | [5] 0.006 | [6] -0.029 | [7] 0.011 | [8] -0.044 | [9] -0.006 | IRAK-1-4 Inhibitor I 0.013 | ibrutinib 0.023 | [10] 0.03 | ralimetinib 0.041 | [11] 0.023 | [12] 0.113 | [13] 0.036 | pinometostat -0.043 | [14] 0.036 | [15] 0.094

From the supplement of paper PMC10849652
